In PMC5675994 one finds binding data, which are given here for nine molecules.

Chains of the proteins cited; added tags and fusions are not shown. Lines headed by an entry give the natural chain unless they say otherwise; changes in a name come on top.
UniProt Q07540: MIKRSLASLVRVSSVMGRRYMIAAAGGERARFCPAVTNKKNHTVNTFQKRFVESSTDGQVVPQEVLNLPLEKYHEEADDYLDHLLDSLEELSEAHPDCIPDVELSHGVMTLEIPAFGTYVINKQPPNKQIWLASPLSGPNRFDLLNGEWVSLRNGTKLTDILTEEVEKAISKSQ

Assay [1] has as its target T1, Nfs1-His6 (S. cerevisiae) (UniProt P25374).
T1 sequence: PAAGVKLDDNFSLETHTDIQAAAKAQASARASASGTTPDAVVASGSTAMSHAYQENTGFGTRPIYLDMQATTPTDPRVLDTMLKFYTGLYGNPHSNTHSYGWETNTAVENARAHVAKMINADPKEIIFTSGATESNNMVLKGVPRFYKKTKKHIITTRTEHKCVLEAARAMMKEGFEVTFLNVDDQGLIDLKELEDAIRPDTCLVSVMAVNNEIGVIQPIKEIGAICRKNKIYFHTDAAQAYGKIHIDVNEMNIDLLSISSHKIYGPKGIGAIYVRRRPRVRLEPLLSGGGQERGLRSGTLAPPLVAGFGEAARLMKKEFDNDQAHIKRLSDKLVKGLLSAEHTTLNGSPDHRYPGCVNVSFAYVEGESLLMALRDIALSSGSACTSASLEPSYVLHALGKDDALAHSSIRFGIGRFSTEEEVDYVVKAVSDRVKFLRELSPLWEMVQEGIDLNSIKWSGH
Kind of assay: affinity purification with mass spectrometry; Nfs1-His6 held on Ni-NTA superflow agarose from sonicated, cleared lysate of isolated mitochondria of the Gal-Nfs1-His6 yeast strain; 50 mM TrisCl pH 7.5, 80 mM KCl, 10% glycerol, wash 40 mM imidazole, elution 400 mM imidazole; eluate analysed by LC-MS/MS.

Assay [2] deals with Yfh1-His6 (S. cerevisiae) (UniProt Q07540). Briefly: affinity purification with mass spectrometry; Yfh1-His6 held on Ni-NTA superflow agarose from French-press lysate (108,000xg supernatant) of isolated mitochondria of the Yfh1-His6 yeast strain; 50 mM TrisCl pH 7.5, 80 mM KCl, 10% glycerol, wash 40 mM imidazole with 0.1% Triton X-100, elution 400 mM imidazole; eluate analysed by LC-MS/MS.

These are yes or no findings as the source states them, for the method shown. Binding seen in cells or lysates may run through a third protein. A yes stands for co-enrichment or nearness to the bait. Other partners may have been found. For part of these data: Sequences can lack the tags named with a protein.

B1: Cap-associated protein CAF20 (protein, UniProt P12962 1-161)
chain: MIKYTIDELFQLKPSLTLEVNFDAVEFRAIIEKVKQLQHLKEEEFNSHHVGHFGRRRSSHHHGRPKIKHNKPKVTTDSDGWCTFEAKKKGSGEDDEEETETTPTSTVPVATIAQETLKVKPNNKNISSNRPADTRDIVADKPILGFNAFAALESEDEDDEA
Take B1: the binding entry in assay [1] and in assay [2] was “binds” each time.

B2: Serine hydroxymethyltransferase, cytosolic (protein, UniProt P37291 1-469)
chain: MPYTLSDAHHKLITSHLVDTDPEVDSIIKDEIERQKHSIDLIASENFTSTSVFDALGTPLSNKYSEGYPGARYYGGNEHIDRMEILCQQRALKAFHVTPDKWGVNVQTLSGSPANLQVYQAIMKPHERLMGLYLPDGGHLSHGYATENRKISAVSTYFESFPYRVNPETGIIDYDTLEKNAILYRPKVLVAGTSAYCRLIDYKRMREIADKCGAYLMVDMAHISGLIAAGVIPSPFEYADIVTTTTHKSLRGPRGAMIFFRRGVRSINPKTGKEVLYDLENPINFSVFPGHQGGPHNHTIAALATALKQAATPEFKEYQTQVLKNAKALESEFKNLGYRLVSNGTDSHMVLVSLREKGVDGARVEYICEKINIALNKNSIPGDKSALVPGGVRIGAPAMTTRGMGEEDFHRIVQYINKAVEFAQQVQQSLPKDACRLKDFKAKVDEGSDVLNTWKKEIYDWAGEYPLAV
Regarding B2, the binding entry in assay [1] and in assay [2] was “binds” each time.

B3: Acyl carrier protein, mitochondrial (protein, UniProt P32463 37-125)
chain: SANLSKDQVSQRVIDVIKAFDKNSPNIANKQISSDTQFHKDLGLDSLDTVELLVAIEEEFDIEIPDKVADELRSVGETVDYIASNPDAN
Regarding B3, the binding entry in assay [1] and in assay [2] was “binds” in each case.

B4: Intrastrand cross-link recognition protein (protein, UniProt P33417 1-597)
chain: MNTGISPKQDDASNSNLLNIGQDHSLQYQGLEHNDSQYRDASHQTPHQYLNQFQAQPQQQQQQQQQQQQQQQQAPYQGHFQQSPQQQQQNVYYPLPPQSLTQPTSQSQQQQQQQQQQQYANSNSNSNNNVNVNALPQDFGYMQQTGSGQNYPTINQQQFSEFYNSFLSHLTQKQTNPSVTGTGASSNNNSNNNNVSSGNNSTSSNPAQLAASQLNPATAAAAAANNAAGPASYLSQLPQVQRYYPNNMNALSSLLDPSSAGNAAGNANTATHPGLLPPNLQPQLTHHQQQMQQQLQLQQQQQLQQQQQLQQQHQLQQQQQLQQQHHHLQQQQQQQQHPVVKKLSSTQSRIERRKQLKKQGPKRPSSAYFLFSMSIRNELLQQFPEAKVPELSKLASARWKELTDDQKKPFYEEFRTNWEKYRVVRDAYEKTLPPKRPSGPFIQFTQEIRPTVVKENPDKGLIEITKIIGERWRELDPAKKAEYTETYKKRLKEWESCYPDENDPNGNPTGHSHKAMNMNLNMDTKIMENQDSIEHITANAIDSVTGSNSNSTNPNTPVSPPISLQQQPLQQQQQQQQQQQHMLLADPTTNGSIIKNE
Regarding B4, the binding entry in assay [1] and in assay [2] was “binds” in each case.

B5: (R,R)-butanediol dehydrogenase (protein, UniProt P39714 1-382)
chain: MRALAYFKKGDIHFTNDIPRPEIQTDDEVIIDVSWCGICGSDLHEYLDGPIFMPKDGECHKLSNAALPLAMGHEMSGIVSKVGPKVTKVKVGDHVVVDAASSCADLHCWPHSKFYNSKPCDACQRGSENLCTHAGFVGLGVISGGFAEQVVVSQHHIIPVPKEIPLDVAALVEPLSVTWHAVKISGFKKGSSALVLGAGPIGLCTILVLKGMGASKIVVSEIAERRIEMAKKLGVEVFNPSKHGHKSIEILRGLTKSHDGFDYSYDCSGIQVTFETSLKALTFKGTATNIAVWGPKPVPFQPMDVTLQEKVMTGSIGYVVEDFEEVVRAIHNGDIAMEDCKQLITGKQRIEDGWEKGFQELMDHKESNVKILLTPNNHGEMK
Consider B5, for which the binding entry in assay [1] and in assay [2] was “binds” each time.

B6: Mitochondrial metal transporter 2 (protein, UniProt Q08970 57-484)
chain: KEGQEEGYNEQLISKMSSQNGSNSRQNESEGKKEGKASSVKSLLQHTHSHSHTHMHDNPLLSLNVQQIKKNPGVRITWIGLASNVGMAVGKFVGGITFHSQALLADSVHALSDLVSDFLTLFSVQYASRKPTSEYPYGYGKVETVGSLAVSTILAMAGISIGWSSLCAIVGPVIPHAILESMAGLIGETHSHSQSLTQQATNVNAVWIAAGSILVKEWVFQATKKVAIQTNSNVLMANAWHHRVDSLTSLVALVAITSSYFFNIQSLDNLGGLVVSGLIIKTGGQGILSSLKELVDQSIPPTDPRYLEIESVIKDSIGSLKTDLDLKQSLHVRDLTILASGPNLRATTTLEVPVLHSGQEVGIRFLENAISTIREDLRMKVPNVGKVDVEFVDVTSDSKGDLEHSHDTKSTNHTHTHSDSADTHTHKH
With B6, the binding result in assay [1] and in assay [2] was “binds” in each case.

B7: Uncharacterized protein YHR097C (protein, UniProt P38809 1-366)
chain: MNQTGRTIGGPQNGVNTVINPFRVSPSEDRVSSRDETPRNYNNPFLNEDDTRRAHNSSVSNSRQERLPSYEEAAGTPKQQAPYPKEKKRSSGSNSHQHNHHHHRRTSHGHRDKDKQKSKSRTKVKPPKNVDTIDKMDVTGLFGGSFHHDGPFDACTPQRNKNNKVAPVLAFPADGPNNTVGGRTSKKSTLDEVFGRETVDDDSETLNQLQDRAYLFNKANSSTTTLDAIKPNSKNITQFDSKMKTELVHGPITMGLGSTTFLDGAPASSAAIEQDVINHAQESRRKNSIARKKSLPSRRHLQVNNNNLKLVKTHSGHLEQKDVDDNRTSVPVTATQGSGHEDVVKKENTGNKLLRRVKSLKTSKKH
Consider B7, for which the binding entry in assay [1] and in assay [2] was “binds” in each case.

B8: Factor arrest protein 8 (protein, UniProt Q05040 1-523)
chain: MAINQAHVHPHYTLPGVMHYLQTEFTKNERDRITWELERSEMKARIAELEGENRDLKHQLNQIQSKAVSPEGEKEEKHVPDSLLQSKLAVQENVKEIIYLLKGPNTVNQLESLNSREAGSELHDLEKLNVNTPKEEGSAKTNGMDILNNALLDTKPNPKQGPSESPSPTKVKSLFSTANKRENNETISKIHSELSKVDIISSYGDCMALYDADTKSLEIHQVDANLNSKLLKKISLGQDSDIMKFFWVSTSKLLVIEKSFHLKLFSISSASLISDVDLLQDSEQPFSSSDIINIDFKNKWLLIASKNKSQIRIWELDNIEAPEDVPINIKETYEITHDNDDDDSNDSTNILDCILGITEKSLILLSSNPYQLTIYDFEGKLLQKIDLKIDTILSGKPEEEGYHLFLDRKTSKLLIQLSNERLLVYSFDKKKVVLKEQLTPSSTLPIQLDLNDSIITVSYSNGDFEFRNLENLKPSIDEFVVADINFSERKEPVVFSSNLIVDSTPVLITVNKNNEVLLHKIKI
As to B8, the binding entry in assay [1] and in assay [2] was “binds” in each case.

B9: Probable serine/threonine-protein kinase RTK1 (protein, UniProt Q12100 1-620)
chain: MVKETPLHSSSSTSLSSLFRPTKLKNLSAKIFNGGGNQSYSKTDDVSRSSSRSSKKNTDSDQEDQIKYNKPNDRRSTIGKSPQGNGALSKESHVVASSTLTGISPTSAKKAPIDYSPSRPLPNNHNPVRTGHTVPHLPHSIHNPINYIHQGSKDAFHHPHPVRSTAHSNISTVSSAKSDTPSSNLSYQAHMHPVEILQKQIEDKHFMDSQASTPGSVELQHNSSSGSDDTSSRKKKSLRLTRFFKKIHNDYHDNHHHHHHHNRGSTPTKPKLNLNTNENIVESNGKALYETDNPVELLEKYGIPGRKLGEGASGSVSVVERTDGKLFACKMFRKPHLNNEGTNQSQLANYSKKVTTEFCIGSTLHHENIVETLDMLTEGDTYLLVMEYAPYDFFNLVMSNLMTQDEVNCYFKQLCHGVNYLHSMGLAHRDLKLDNCVVTKDGILKLIDFGSAVVFQYPYEDTIVKSHGIVGSDPYLAPELLKQTSYDPRVADVWSIAIIFYCMVLKRFPWKAPKKSFNSFRLFTEEPEDEDDIVRGPNKILRLLPRHSRTIIGRMLALEPKQRVLMNDVVKDDWLVSVPSCEVDPTSGDLVEKPKNHKHHLVTEEELNELTKQHGNKDSN
For the molecule B9, the binding result in assay [1] and in assay [2] was “binds” throughout.
